No constants are given. Whether binding was seen depends on the method and setting. Binding seen in cells or lysates may run through a third protein.
T1: Serum amyloid A-like 1 (SAAL1) (human (endogenous in SK-Hep1)) (UniProt Q96ER3)
T1 sequence: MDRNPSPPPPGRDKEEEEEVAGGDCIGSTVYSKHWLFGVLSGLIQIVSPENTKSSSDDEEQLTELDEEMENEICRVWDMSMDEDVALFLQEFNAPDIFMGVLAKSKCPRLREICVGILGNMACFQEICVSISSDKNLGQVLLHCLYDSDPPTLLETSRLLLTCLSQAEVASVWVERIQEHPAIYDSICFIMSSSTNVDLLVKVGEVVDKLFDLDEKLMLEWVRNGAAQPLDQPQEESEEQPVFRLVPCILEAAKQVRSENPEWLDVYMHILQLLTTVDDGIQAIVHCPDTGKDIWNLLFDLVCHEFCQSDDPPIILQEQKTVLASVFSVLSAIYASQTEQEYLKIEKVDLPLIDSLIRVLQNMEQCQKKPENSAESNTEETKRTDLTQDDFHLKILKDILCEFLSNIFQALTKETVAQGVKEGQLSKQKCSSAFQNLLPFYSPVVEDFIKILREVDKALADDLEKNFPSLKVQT

Chains of the proteins cited; added tags and fusions are not shown. Residues count along the entry.
UniProt P08581, residues 25-1390: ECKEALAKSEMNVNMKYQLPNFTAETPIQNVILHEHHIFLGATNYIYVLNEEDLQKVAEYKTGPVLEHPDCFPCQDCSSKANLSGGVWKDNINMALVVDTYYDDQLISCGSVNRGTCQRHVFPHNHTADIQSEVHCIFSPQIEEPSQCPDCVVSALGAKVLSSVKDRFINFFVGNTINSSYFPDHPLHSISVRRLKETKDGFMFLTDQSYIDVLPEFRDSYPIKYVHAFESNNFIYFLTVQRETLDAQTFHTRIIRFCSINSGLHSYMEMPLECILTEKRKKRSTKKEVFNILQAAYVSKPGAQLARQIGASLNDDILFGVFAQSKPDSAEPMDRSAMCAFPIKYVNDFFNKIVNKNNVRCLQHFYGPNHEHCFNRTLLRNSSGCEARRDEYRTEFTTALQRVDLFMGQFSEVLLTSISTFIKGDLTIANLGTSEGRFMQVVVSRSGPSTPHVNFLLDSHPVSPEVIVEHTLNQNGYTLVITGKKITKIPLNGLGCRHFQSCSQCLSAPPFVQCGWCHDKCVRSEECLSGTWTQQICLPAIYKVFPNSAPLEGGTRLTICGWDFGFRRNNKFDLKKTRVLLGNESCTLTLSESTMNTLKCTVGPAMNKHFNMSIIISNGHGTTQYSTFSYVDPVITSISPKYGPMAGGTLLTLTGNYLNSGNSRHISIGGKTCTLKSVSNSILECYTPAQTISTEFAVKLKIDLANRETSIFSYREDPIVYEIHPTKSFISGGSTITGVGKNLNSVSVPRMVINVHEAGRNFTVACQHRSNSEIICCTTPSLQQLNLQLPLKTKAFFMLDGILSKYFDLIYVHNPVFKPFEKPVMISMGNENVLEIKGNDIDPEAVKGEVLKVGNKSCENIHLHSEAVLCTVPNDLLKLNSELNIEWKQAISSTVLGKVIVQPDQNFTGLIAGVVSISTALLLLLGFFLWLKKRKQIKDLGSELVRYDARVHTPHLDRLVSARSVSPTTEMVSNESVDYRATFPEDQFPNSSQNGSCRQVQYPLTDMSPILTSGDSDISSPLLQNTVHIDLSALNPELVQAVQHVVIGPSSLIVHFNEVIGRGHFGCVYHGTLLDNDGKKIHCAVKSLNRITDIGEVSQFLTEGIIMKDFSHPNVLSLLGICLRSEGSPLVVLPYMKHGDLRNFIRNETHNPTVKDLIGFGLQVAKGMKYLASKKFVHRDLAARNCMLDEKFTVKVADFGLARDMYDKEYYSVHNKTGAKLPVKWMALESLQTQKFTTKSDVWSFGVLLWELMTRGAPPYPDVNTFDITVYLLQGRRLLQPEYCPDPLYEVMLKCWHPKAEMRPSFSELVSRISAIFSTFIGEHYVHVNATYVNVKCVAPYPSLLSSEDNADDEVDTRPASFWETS


How the values were obtained:
[1] = target: T1, Serum amyloid A-like 1 (SAAL1) (human (endogenous in SK-Hep1)); assay: co-IP; SK-Hep1 cells serum-starved 16 h, stimulated with 50 ng/mL HGF for one hour; lysate in co-IP buffer (0.5% NP-40, 25 mM Tris-HCl, 150 mM NaCl, 2 mM EDTA); IP with anti-SAAL1 or anti-Met antibody and protein G magnetic beads; Western blot
[2] = target: T1, Serum amyloid A-like 1 (SAAL1) (human (endogenous in SK-Hep1)); assay: co-IP; SK-Hep1 cells not treated with HGF; lysate in co-IP buffer (0.5% NP-40, 25 mM Tris-HCl, 150 mM NaCl, 2 mM EDTA); IP with anti-SAAL1 or anti-Met antibody and protein G magnetic beads; Western blot
[3] = target: Met (human (endogenous in SK-Hep1)) (UniProt P08581); assay: co-IP; SK-Hep1 cells serum-starved 16 h, stimulated with 50 ng/mL HGF for one hour; lysate in co-IP buffer (0.5% NP-40, 25 mM Tris-HCl, 150 mM NaCl, 2 mM EDTA); IP with anti-SAAL1 or anti-Met antibody and protein G magnetic beads; Western blot
[4] = target: Met (human (endogenous in SK-Hep1)) (UniProt P08581); assay: co-IP; SK-Hep1 cells not treated with HGF; lysate in co-IP buffer (0.5% NP-40, 25 mM Tris-HCl, 150 mM NaCl, 2 mM EDTA); IP with anti-SAAL1 or anti-Met antibody and protein G magnetic beads; Western blot

| binding [1] | binding [2] | binding [3] | binding [4] | Molecule |
| --- | --- | --- | --- | --- |
| no binding | no binding | – | – | Met (from UniProt P08581 25-1390) (receptor) |
| – | – | no binding | no binding | Serum amyloid A-like 1 (SAAL1) (protein, UniProt Q96ER3 1-474) MDRNPSPPPPGRDKEEEEEVAGGDCIGSTVYSKHWLFGVLSGLIQIVSPENTKSSSDDEEQLTELDEEMENEICRVWDMSMDEDVALFLQEFNAPDIFMGVLAKSKCPRLREICVGILGNMACFQEICVSISSDKNLGQVLLHCLYDSDPPTLLETSRLLLTCLSQAEVASVWVERIQEHPAIYDSICFIMSSSTNVDLLVKVGEVVDKLFDLDEKLMLEWVRNGAAQPLDQPQEESEEQPVFRLVPCILEAAKQVRSENPEWLDVYMHILQLLTTVDDGIQAIVHCPDTGKDIWNLLFDLVCHEFCQSDDPPIILQEQKTVLASVFSVLSAIYASQTEQEYLKIEKVDLPLIDSLIRVLQNMEQCQKKPENSAESNTEETKRTDLTQDDFHLKILKDILCEFLSNIFQALTKETVAQGVKEGQLSKQKCSSAFQNLLPFYSPVVEDFIKILREVDKALADDLEKNFPSLKVQT |

From publication PMC7408781
